No constants are given. Whether binding was seen depends on the method and setting. Binding seen in cells or lysates may run through a third protein. Binding can be weak; no strength is given.

The experiment deals with T1, Enoyl-CoA hydratase short-chain 1 (ECHS1) (human (endogenous in HCT116 and LoVo)) (UniProt P30084).
T1 sequence: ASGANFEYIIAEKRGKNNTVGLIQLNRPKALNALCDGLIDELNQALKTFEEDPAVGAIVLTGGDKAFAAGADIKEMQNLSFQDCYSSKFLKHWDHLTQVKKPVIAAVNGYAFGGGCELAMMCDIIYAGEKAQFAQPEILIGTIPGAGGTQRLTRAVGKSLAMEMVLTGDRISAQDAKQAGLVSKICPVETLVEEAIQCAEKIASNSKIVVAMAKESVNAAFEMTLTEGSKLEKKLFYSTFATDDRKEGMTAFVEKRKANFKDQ
As to the kind of experiment: co-IP; lysates of HCT116 and LoVo cells in 50 mM Tris-HCl pH 7.5, 150 mM NaCl, 0.1% NP-40; anti-ECHS1 antibody and Protein G agarose, 4-5 h at 4 °C; Western blot. (In general: Immunoblotting shows a protein as a band on a membrane.)

For “Sirtuin 3 (SIRT3) (human (endogenous in HCT116 and LoVo))”, the binding result is “binds”.

The values above are taken from article PMC12117712.
